Results from PubChem BioAssay AID485314 (National Center for Advancing Translational Sciences (NCATS), 2010).
Hit rate of the full screen: of about 340,000 compounds, about 4,500 (1.3%) were called active. This list was built around the results that the source calls inconclusive (neither active nor inactive); the mix of calls is not that of the screen. The call rests on the fitted dose curve; in most records, active means well fitted inhibition curve with a large enough effect; inconclusive means small, poorly fitted or top-dose-only effect, or another doubt; inactive means no such curve, though single readings can be large or run the other way. Where the call is inconclusive, the potency comes from a doubtful curve fit.

These compounds were tested against DNA polymerase beta (Homo sapiens) (UniProt P06746) (assay: qHTS Assay for Inhibitors of DNA Polymerase Beta). Details: Pol beta primer extension/strand displacement, fluorescence kinetic; series mostly up to 114 µM.
Outline: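 Pol beta (10 nM) was preincubated with compound for 15 min at room temperature. The reaction was then started with 50 nM substrate and read immediately and after a further 10 min at room temperature.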
Potency means the concentration at half of the fitted maximal effect.

Question: How did the Potency turn out when COc1ccc(-n2c(=O)c3c4c(sc3n(Cc3ccc(F)cc3)c2=O)CN(C(C)=O)CC4)c(OC)c1 was run?
Answer: inactive

Question: For CCCC(=O)Nc1sc(C)c(C)c1C#N, which Potency is on record?
Answer: inactive

Question: With O=C(CNc1ccccc1Cl)N/N=C1\CCCc2ccccc21 as the compound, how does the Potency read?
Answer: inconclusive: 1.26 µM [inhibitor, full curve]

Question: CCN(CC)c1ccc(C(=O)N2CCc3c([nH]c4ccccc34)C2c2ccc(F)cc2)cc1 (centres undefined) was tested. Which Potency did it give?
Answer: inconclusive: 89.1 µM [inhibitor, single point]

Question: Which Potency does the source give for Cc1csc(NC(=O)CSc2nnc(Cc3cccn3C)n2CCc2ccccc2)n1 here?
Answer: inconclusive: 89.1 µM [inhibitor, single point]

Question: For COc1ccc(CNC(=O)c2ccc(CS(=O)c3ccccc3)o2)cc1 (centres undefined), which Potency is on record?
Answer: inconclusive: 79.4 µM [inhibitor, single point]

Question: COc1ccc2[nH]c(C)c(CCNC(=S)Nc3cc(C)cc(C)c3)c2c1 was tested. Which Potency did it give?
Answer: inconclusive: 100 µM [inhibitor, single point]

Question: CC/C(C)=N/N1C(=O)c2ccccc2NC1(C)CC (centres undefined) was tested. Which Potency did it give?
Answer: inconclusive: 14.1 µM [inhibitor, partial curve, poor fit]

Question: For O=C(Cn1cnc2ccccc2c1=O)Nc1ccc2c(c1)CCC2, which Potency is on record?
Answer: inconclusive: 89.1 µM [inhibitor, single point]

Question: Which Potency does the source give for C=CCn1c(C)cc(C(=O)COC(=O)c2ccc(N)c([N+](=O)[O-])c2)c1C here?
Answer: inconclusive: 89.1 µM [inhibitor, single point]

Question: Which Potency does the source give for Cc1ccc(C)n1NC(=O)c1ccc(Cl)cc1Cl here?
Answer: inconclusive: 89.1 µM [inhibitor, single point]

Question: For CCCNC(=O)c1ccc(-c2nc3ccccc3s2)s1, which Potency is on record?
Answer: active: 15.8 µM

Question: How did the Potency turn out when C=C(C)C(=O)Nc1cccc(C2=NOC3(C2)C[C@H](C(N)=O)N(C(=O)C(c2ccccc2)c2ccccc2)C3)c1 (some centres undefined) was run?
Answer: active: 14.1 µM

Question: How did the Potency turn out when O=C(Oc1ccccc1)N(c1ccccc1)c1ccccc1 was run?
Answer: inactive

Question: Cc1ccc(/C=C/C(=O)c2ccccc(=O)c2O)c(C)c1 was tested. Which Potency did it give?
Answer: inconclusive: 3.55 µM [inhibitor, full curve]

Question: CN=C(Nc1ccc(Br)cc1)SC1CC(=O)N(c2ccc(OC)cc2)C1=O (centres undefined) was tested. Which Potency did it give?
Answer: inconclusive: 0.794 µM [inhibitor, full curve, poor fit]

Question: With Cn1c(SCc2ccc(Br)cc2)nc2c(c1=O)SCC2 as the compound, how does the Potency read?
Answer: inconclusive: 31.6 µM [inhibitor, single point]

Question: Which Potency does the source give for COc1cccc(Oc2ccc(N/C=C/C(=O)C(C)(C)C)cc2)c1 here?
Answer: inconclusive: 100 µM [inhibitor, single point]

Question: With Cn1cnnc1SCC(=O)NC1CCCN(Cc2ccc(Cl)cc2)C1 (centres undefined) as the compound, how does the Potency read?
Answer: inactive
